Results are given in words; binding and its absence hold for the method and conditions named. Some binding calls cover weakened binding; strength is not graded here. Tags and fused reporters may be left off the sequences shown.
Legend:
[1] = target: EGFP labeled Notch (Drosophila Notch stably expressed on S2 cells) (Drosophila) (UniProt P07207); assay: S2 cell aggregation; SerDel3tom transfected into Notch-EGFP cells (cis), competitor of Sertom cells (trans)
[2] = target: EGFP labeled Notch (Drosophila Notch stably expressed on S2 cells) (Drosophila) (UniProt P07207); assay: S2 cell aggregation, cis competition
[3] = target: EGFP labeled Notch (Drosophila Notch stably expressed on S2 cells) (Drosophila) (UniProt P07207); assay: S2 cell aggregation; SerDel3 form transfected into Notch-EGFP cells (cis), mixed with Sertom cells

Protein sequences, listed by entry. Tags and fused reporters are not part of them. Residues count along the entry.
UniProt P07207, residues 53-2703: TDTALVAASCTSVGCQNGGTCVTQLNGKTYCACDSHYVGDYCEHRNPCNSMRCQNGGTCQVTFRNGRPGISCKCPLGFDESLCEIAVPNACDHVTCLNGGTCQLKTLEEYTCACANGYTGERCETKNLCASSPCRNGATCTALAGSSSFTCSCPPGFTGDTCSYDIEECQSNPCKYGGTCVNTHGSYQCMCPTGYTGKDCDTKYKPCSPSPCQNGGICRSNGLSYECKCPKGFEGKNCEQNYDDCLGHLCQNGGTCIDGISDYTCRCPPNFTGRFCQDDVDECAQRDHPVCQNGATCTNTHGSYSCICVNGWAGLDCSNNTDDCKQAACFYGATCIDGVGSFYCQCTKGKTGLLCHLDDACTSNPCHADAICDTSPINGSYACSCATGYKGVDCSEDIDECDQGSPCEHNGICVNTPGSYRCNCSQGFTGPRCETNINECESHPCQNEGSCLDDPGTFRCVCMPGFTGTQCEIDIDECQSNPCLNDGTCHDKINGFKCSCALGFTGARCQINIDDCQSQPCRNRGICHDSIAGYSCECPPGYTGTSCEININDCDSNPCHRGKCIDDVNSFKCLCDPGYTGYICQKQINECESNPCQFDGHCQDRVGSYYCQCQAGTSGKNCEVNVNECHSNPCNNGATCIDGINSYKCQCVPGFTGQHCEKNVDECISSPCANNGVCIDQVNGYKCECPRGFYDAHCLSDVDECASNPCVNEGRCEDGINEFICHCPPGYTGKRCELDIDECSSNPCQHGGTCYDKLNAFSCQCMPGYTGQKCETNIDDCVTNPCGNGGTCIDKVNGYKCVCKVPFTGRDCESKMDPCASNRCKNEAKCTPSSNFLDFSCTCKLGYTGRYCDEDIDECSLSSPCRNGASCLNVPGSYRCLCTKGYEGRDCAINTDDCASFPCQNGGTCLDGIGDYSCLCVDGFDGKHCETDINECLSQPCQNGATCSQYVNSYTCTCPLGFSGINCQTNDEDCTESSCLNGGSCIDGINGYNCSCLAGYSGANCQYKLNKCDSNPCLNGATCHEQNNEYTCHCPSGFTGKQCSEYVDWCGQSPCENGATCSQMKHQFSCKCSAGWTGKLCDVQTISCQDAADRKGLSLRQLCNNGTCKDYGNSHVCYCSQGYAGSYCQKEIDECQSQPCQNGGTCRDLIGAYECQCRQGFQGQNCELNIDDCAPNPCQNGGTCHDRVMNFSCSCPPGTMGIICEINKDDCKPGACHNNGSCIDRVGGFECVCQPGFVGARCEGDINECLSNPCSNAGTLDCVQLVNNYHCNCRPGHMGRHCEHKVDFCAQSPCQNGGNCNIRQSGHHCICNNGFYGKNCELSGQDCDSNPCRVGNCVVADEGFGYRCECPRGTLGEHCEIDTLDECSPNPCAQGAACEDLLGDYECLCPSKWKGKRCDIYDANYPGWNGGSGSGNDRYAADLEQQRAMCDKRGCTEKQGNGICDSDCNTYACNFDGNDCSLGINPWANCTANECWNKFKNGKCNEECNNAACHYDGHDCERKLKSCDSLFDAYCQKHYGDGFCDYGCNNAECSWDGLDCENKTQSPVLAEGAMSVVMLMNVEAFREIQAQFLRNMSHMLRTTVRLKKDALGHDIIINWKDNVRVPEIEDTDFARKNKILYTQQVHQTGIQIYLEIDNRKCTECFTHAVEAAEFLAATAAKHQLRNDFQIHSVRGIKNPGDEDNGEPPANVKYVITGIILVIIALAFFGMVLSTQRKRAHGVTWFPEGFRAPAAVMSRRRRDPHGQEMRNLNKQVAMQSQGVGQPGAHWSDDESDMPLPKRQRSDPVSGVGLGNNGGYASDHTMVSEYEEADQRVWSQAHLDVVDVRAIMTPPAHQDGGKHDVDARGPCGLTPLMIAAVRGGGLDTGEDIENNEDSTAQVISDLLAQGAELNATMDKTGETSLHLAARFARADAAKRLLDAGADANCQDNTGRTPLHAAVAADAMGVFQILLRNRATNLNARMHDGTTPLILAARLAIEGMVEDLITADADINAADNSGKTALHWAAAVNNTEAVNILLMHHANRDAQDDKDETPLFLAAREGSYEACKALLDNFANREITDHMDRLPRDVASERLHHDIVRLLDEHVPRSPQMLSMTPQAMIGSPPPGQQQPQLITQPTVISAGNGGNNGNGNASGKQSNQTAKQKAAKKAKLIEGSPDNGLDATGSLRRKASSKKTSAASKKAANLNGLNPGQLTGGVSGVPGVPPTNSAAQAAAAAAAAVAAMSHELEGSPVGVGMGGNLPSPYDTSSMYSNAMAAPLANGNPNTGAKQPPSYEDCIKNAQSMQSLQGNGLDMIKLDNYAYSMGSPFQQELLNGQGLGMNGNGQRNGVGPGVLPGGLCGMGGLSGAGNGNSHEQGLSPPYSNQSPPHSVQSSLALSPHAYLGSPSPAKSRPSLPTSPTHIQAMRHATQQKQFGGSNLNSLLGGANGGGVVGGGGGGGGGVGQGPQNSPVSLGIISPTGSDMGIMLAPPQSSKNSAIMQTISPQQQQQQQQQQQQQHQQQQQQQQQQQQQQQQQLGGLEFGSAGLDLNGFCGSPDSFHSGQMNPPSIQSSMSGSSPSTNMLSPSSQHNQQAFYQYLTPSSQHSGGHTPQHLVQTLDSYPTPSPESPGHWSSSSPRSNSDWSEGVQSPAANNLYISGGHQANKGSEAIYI

Measured: binding

B1: SerDel3tom (tomato-tagged Ser lacking ELR 3) (ligand, not shown: small tags and cut ends)
chain: GNFELEILEISNTNSHLLNGYCCGMPAELRATKTIGCSPCTTAFRLCLKEYQTTEQGASISTGCSFGNATTKILGGSSFVLSDPGVGAIVLPFTFRWTKSFTLILQALDMYNTSYPDAERLIEETSYSGVILPSPEWKTLDHIGRNARITYRVRVQCAVTYYNTTCTTFCRPRDDQFGHYACGSEGQKLCLNGWQGVNCEEAICKAGCDPVHGKCDRPGECECRPGWRGPLCNECMVYPGCKHGSCNGSAWKCVCDTNWGGILCDQDLNFCATRPCRNGGTCTLKTSNRTQAQVYRTSHGRSNMGRPVRRSSSMRSLDHLRPEGQALNGSSSSGLVSLGSLQLQQQLAPDFTCDCAAGWTGPTCEINIDECAGGPCEHGGTCIDLIGGFRCECPPEWHGDVCQVDVNECEAPHSAGIAANALLTTTATAIIGSNLSSTALLAALTSAVASTSLAIGPCINAKECRNQPGSFACICKEGWGGVTCAENLDDCVGQCRNGATCIDLVNDYRCACASGFTGRDCETDIDECATSPCRNGGECVDMVGKFNCICPLGYSGSLCEEAKENCTPSPCLEGHCLNTPEGYYCHCPPDRAGKHCEQLRPLCSQPPCNEGCFANVSLATSATTTTTTTTTATTTRKMAKPSGLPCSGHGSCEMSDVGTFCKCHVGHTGTFCEHNLNECSPNPCRNGGICLDGDGDFTCECMSGWTGKRCSERATGCYAGQCQNGGTCMPGAPDKALQPHCRCAPGWTGLFCAEAIDQCRGQPCHNGGTCESGAGWFRCVCAQGFSGPDCRINVNECSPQPCQGGATCIDGIGGYSCICPPGRHGLRCEILLSDPKSACQNASNTISPYTALNRSQNWLDIALTGRTEDDENCNACVCENGTSRCTNLWCGLPNCYKVDPLSKSSNLSGVCKQHEVCVPALSETCLSSPCNVRGDCRALEPSRRVAPPRLPAKSSCWPNQAVVNENCARLTILLALERVGKGASVEGLCSLVRVLLAAQLIKKPASTFGQDPGMLMVLCDLKTGTNDTVELTVSSSKLNDPQLPVAVGLLGELLSSRQLNGIQRRKELELQHAKLAALTSIVEVKLETARVADGSGHSLLIGVLCGVFIVLVGFSVFISLYWKQRLAYRTSSGMNLTPSLDALRHEEEKSNNLQNEENLRRYTNPLKGSTSSLRAATGMELSLNPAPELAASAASSSALHRSQPLFPPCDFERELDSSTGLKQAHKRSSQILLHKTQNSDMRKNTVGSLDSPRKDFGKRSINCKSMPPSSGDEGSDVLATTVMV
binds: all assays above
